Measurements as given in patent US20230030032A1 (AGGAMIN, published 2023).
No constants are given. Whether binding was seen depends on the method and setting. Some results given as binding are weak or reduced against the parent protein; the word gives no strength.

How the values were obtained:
[1] = target: T1, soluble Endoglin (sEng), recombinant, as spiked or purified protein (human) (UniProt P17813); experiment: SEC and ELISA
T1 sequence (looked up): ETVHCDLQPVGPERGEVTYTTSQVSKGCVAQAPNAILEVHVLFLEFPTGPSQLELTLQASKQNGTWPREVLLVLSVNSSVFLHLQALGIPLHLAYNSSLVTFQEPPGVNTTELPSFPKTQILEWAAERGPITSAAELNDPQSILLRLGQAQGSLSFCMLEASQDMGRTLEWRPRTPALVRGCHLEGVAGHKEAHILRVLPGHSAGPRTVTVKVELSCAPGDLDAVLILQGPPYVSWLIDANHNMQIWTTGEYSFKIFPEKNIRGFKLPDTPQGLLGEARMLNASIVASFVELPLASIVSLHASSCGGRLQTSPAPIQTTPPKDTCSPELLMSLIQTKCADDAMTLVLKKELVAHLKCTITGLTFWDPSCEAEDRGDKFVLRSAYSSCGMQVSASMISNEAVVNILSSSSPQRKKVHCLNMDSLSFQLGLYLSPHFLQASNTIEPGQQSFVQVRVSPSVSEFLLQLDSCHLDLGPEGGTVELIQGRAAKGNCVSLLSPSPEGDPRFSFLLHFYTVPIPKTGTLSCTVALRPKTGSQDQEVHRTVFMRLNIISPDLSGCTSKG

[2] = target: T1, soluble Endoglin (sEng), recombinant, as spiked or purified protein (human); experiment: SEC and ELISA, summary of Example 8
[3] = target: T1, soluble Endoglin (sEng), recombinant, as spiked or purified protein (human); experiment: ELISA, wells coated with 2 ug/ml sEng, anti-human Fc HRP detection
[4] = target: T1, soluble Endoglin (sEng), recombinant, as spiked or purified protein (human); experiment: analytical size exclusion chromatography, Superdex 200, 1-2 uM proteins
[5] = target: T2, endogenous sEng in pooled serum of pre-eclampsia patients (human) (UniProt P17813); experiment: column depletion from pooled pre-eclampsia serum, 0.8 mg antibody/ml beads
T2 sequence (looked up): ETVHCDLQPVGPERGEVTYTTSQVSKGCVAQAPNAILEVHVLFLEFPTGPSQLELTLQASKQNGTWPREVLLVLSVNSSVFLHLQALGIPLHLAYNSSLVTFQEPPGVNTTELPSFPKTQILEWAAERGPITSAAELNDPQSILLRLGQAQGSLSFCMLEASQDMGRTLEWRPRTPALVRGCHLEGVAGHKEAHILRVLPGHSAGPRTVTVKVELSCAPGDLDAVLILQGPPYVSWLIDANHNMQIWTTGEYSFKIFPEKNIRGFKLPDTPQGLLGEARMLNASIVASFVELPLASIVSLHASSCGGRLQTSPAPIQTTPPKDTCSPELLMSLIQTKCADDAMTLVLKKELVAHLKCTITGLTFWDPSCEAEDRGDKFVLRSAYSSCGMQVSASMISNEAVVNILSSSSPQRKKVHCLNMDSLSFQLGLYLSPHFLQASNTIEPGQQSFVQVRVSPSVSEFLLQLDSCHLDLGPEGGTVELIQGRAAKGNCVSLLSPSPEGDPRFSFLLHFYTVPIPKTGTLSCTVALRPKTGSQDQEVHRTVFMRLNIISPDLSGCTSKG

[6] = target: T1, soluble Endoglin (sEng), recombinant, as spiked or purified protein (human); experiment: 1 ml column, 0.2 mg cENG10/ml beads, 60 ng/ml sEng in horse serum, linear flow rates varied
[7] = target: T1, soluble Endoglin (sEng), recombinant, as spiked or purified protein (human); experiment: sandwich ELISA, coated cENG10 (4 ug/mL), preformed Bmp9-sEng complex 0.02 to 20 nM, anti-Bmp9 detection
[8] = target: T1, soluble Endoglin (sEng), recombinant, as spiked or purified protein (human); experiment: ELISA: wells coated with 2 ug/ml sEng, serial dilutions of cENG10, detected with HRP-conjugated polyclonal anti-human IgG Fc
[9] = target: T1, soluble Endoglin (sEng), recombinant, as spiked or purified protein (human); experiment: depletion of sEng spiked in human plasma by a 1 ml column with varying amounts of covalently coupled antibody; sEng in input and flow-through by ELISA
[10] = target: T1, soluble Endoglin (sEng), recombinant, as spiked or purified protein (human); experiment: depletion of sEng spiked in horse serum by a 1 ml column of antibody covalently coupled at 0.2 mg per ml beads; sEng in input and flow-through by ELISA; residence time varied
[11] = target: T1, soluble Endoglin (sEng), recombinant, as spiked or purified protein (human); experiment: sandwich ELISA: cENG10 coated at 4 ug/mL, serial dilutions of preformed equimolar Bmp9/sEng complex, bound Bmp9 detected with biotinylated anti-Bmp9 antibody and an HRP conjugate
[12] = target: T1, soluble Endoglin (sEng), recombinant, as spiked or purified protein (human); experiment: depletion of sEng spiked in horse serum (60 ng/ml, 10 ml) by a 1 ml column of antibody covalently coupled at 0.2 mg per ml beads; sEng in input and flow-through by ELISA; linear flow rate varied
[13] = target: T1, soluble Endoglin (sEng), recombinant, as spiked or purified protein (human); experiment: depletion of sEng spiked in serum (60 ng/ml, 10 ml) by a 1 ml column of antibody covalently coupled to CNBr-Sepharose 4FF at 0.2 mg per ml beads; sEng in input and flow-through by ELISA; volumetric flow rate varied
[14] = target: T1, soluble Endoglin (sEng), recombinant, as spiked or purified protein (human); experiment: CNBr-Sepharose column depletion of sEng
[15] = target: T1, soluble Endoglin (sEng), recombinant, as spiked or purified protein (human); experiment: Protein-G Sepharose column depletion at 1 or 0.2 mg antibody per ml beads

Measured: binding

B1: chimeric anti-sEng antibody cENG10 (antibody, human IgG1, kappa, N297Q, V domains shown)
VH: EVQLEQSGPEVVKPGTSVKISCKTSGYTITEHTLHWIKQNQGKSLEWIGGINFDNGGTTYRQKFKDKATLTVDKSSSTAFMELRSLTSDDSAVYFCARRAYYYGSAFDYWGQGTTLTVSS
VL: ENVLTQSPAIMSASLGEKVTMTCRASSSVNYVYWYQQKSDASPKLWIYYTSNLAPGVPARFSGSGSGNSYSLTISSMEGEDAATYYCQQFISFPYTFGGGTKLEIKR
notes: Murine MAb 210 variable regions on human IgG1 / kappa constant regions; also called αEng; cENG10 (CHO-derived)
binds: [1] | [2] | [3] | [4] | [5] | [6] | [7] | [8] | [9] | [10] | [11] | [12] | [13]

B2: MAb 210 (antibody, V domains shown)
VH: EVQLEQSGPEVVKPGTSVKISCKTSGYTITEHTLHWIKQNQGKSLEWIGGINFDNGGTTYRQKFKDKATLTVDKSSSTAFMELRSLTSDDSAVYFCARRAYYYGSAFDYWGQGTTLTVSS
VL: ENVLTQSPAIMSASLGEKVTMTCRASSSVNYVYWYQQKSDASPKLWIYYTSNLAPGVPARFSGSGSGNSYSLTISSMEGEDAATYYCQQFISFPYTFGGGTKLEIK
notes: Murine monoclonal antibody from hybridoma; also called lead antibody
binds: [14] | [15]
